# Results from one PubChem assay

From PubChem BioAssay record AID893 (NCATS, 2007).

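Inhibition of a His-tagged, E. coli-produced human HSD17B10 is judged by how it slows the gain in NADH fluorescence from NAD+ reduction.
Each compound was run as a 15-point series from about 0.0007 to 57 µM.
Fitted half-maximal potency (AC50) from the inhibition curve; a lower value means a more potent inhibitor. The record's title names HSD17B4; its protocol and target entry give this enzyme.
Active means a well-fitted inhibition curve with a large enough effect; inconclusive means a weak, poorly fitted or top-concentration-only effect.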

Values are in µM.
Only part of the assay is listed here, not a random draw.
Potencies fitted to partial, single-point or poorly fitting curves are rough.

SMILES,potency (µM),call,curve as filed
Cn1c(=O)c2c(-c3ccccc3)n3c4ccccc4ncc3c2n(C)c1=O,3.981,active,-
N#CCCn1c(=O)c(-c2ccc(Cl)cc2)nc2cnc(N3CCNCC3)nc21,3.981,active,-
N#CCCn1c(=O)c(-c2ccc(F)cc2)nc2cnc(N3CCOCC3)nc21,31.62,active,-
COc1ccc(-c2nc3cnc(N4CCOCC4)nc3n(CCC#N)c2=O)cc1,3.162,active,-
COc1ccc(-c2nc3cnc(N4CCN(C)CC4)nc3n(CCC#N)c2=O)cc1,19.95,active,-
N#CCCn1c(=O)c(-c2ccccc2)nc2cnc(Oc3cccc(Cl)c3)nc21,31.62,inconclusive,"inhibitor, single point"
CN(C)c1ncc2ncc(=O)n(CCc3ccccc3)c2n1,25.12,inconclusive,"inhibitor, single point"
Cc1ccc(S(=O)(=O)c2cc3c(=O)n4ccccc4nc3n(Cc3ccco3)c2=N)cc1C,15.85,active,-
CCN1CCN(C(=O)CS(=O)Cc2nc(-c3ccc(OC)cc3)oc2C)CC1 (stereo not shown),31.62,inconclusive,"inhibitor, single point"
COCCn1c(=O)c(-c2ccc(OC)cc2)nc2cnc(Oc3ccc(OC)cc3)nc21,39.81,inconclusive,"inhibitor, single point"
Cn1c(=O)c(-c2ccc(F)cc2)nc2cnc(OCc3ccccc3)nc21,31.62,active,-
CCOC(=O)C1=C(C)NC2=C(C(=O)CC(C)(C)C2)C1c1cccc(C)n1 (stereo not shown),25.12,active,-
CNc1nc2sc3c(c2c(=O)n1C)CC(C)(C)SC3,31.62,active,-
O=C(O)c1cccn2c(=O)c3ccccc3nc12,31.62,inconclusive,"inhibitor, single point"
O=c1c2ccccc2c(/C=N/n2cnnc2)c(O)n1-c1ccccc1,31.62,inconclusive,"inhibitor, single point"
COC(=O)C1=CNC=C(C(=O)OC)C1c1ccc(C(=O)OC)cc1,31.62,active,-
O=c1c(-c2ccc(Cl)cc2)nc2cnc(N3CCNCC3)nc2n1-c1ccccc1,31.62,active,-
O=C(Nc1ccc(Cl)cc1)c1cc2nc(-c3ccco3)cc(C(F)(F)F)n2n1,1.995,inconclusive,"inhibitor, partial curve"
O=C(Cn1c2c(c(-c3ccccc3Cl)cc1=O)CCC2)N1CCC2(CC1)OCCO2,31.62,active,-
CCCn1c(=N)c(C(=O)NCc2ccc3c(c2)OCO3)cc2c(=O)n3cccc(C)c3nc21,12.59,inconclusive,"inhibitor, partial curve"
CCCCc1ccc(C2C(C#N)=C(N)SC(N)=C2C#N)s1,12.59,active,-
COc1cccc(C2=CC(c3ccc(C)cc3)n3ncnc3N2)c1 (stereo not shown),31.62,inconclusive,"inhibitor, single point"
COc1ccc2nc(NCCCNC(=O)c3cc(OC)c(OC)c(OC)c3)c(C#N)cc2c1,39.81,inconclusive,"inhibitor, single point"
COCC(=O)Nc1nc2n(n1)C(c1ccccc1)CC(c1ccc(OC)cc1)N2 (stereo not shown),31.62,inconclusive,"inhibitor, single point"
COC(=O)C1=CN(C)C=C(C(=O)OC)C1c1ccccc1Cl,25.12,active,-
Cc1nn(C)cc1CN(C)C(=O)c1cc2nc(-c3ccco3)cc(C(F)(F)F)n2n1,39.81,inconclusive,"inhibitor, single point"
COCCNC(=O)c1c(NC(=O)c2ccco2)n(Cc2ccccc2)c2nc3ccccc3nc12,31.62,active,-
CCC(C)NC(=O)c1c(N)n(CCCOC)c2nc3ccccc3nc12 (stereo not shown),25.12,active,-
COCCn1c(=O)c(-c2cccc(C#N)c2)nc2cnc(N3CCNCC3)nc21,25.12,active,-
CCN1CC=C2C(C#N)=C(N)C(C#N)(C#N)C(c3cc(Cl)ccc3Cl)C2C1 (stereo not shown),31.62,active,-
Cc1nc2sccn2c(=O)c1CCN1CCC(=C(c2ccc(F)cc2)c2ccc(F)cc2)CC1,39.81,inconclusive,"inhibitor, single point"
N=c1c(C(=O)NC2CCCC2)cc2c(=O)n3ccccc3nc2n1CCN1CCOCC1,3.162,active,-
O=C(c1cc2nc(-c3ccco3)cc(C(F)(F)F)n2n1)N1CCc2ccccc2C1,31.62,inconclusive,"inhibitor, single point"
COc1ccc(C2C=C(c3ccc(C)c(C)c3)Nc3ncnn32)c(OC)c1OC (stereo not shown),39.81,inconclusive,"inhibitor, single point"
COCCNC(=O)c1c(N)n(-c2cccc(C)c2)c2nc3ccccc3nc12,25.12,active,-
COc1cccc(Cn2c(=O)c(-c3ccc(Cl)cc3)nc3cnc(OC)nc32)c1,31.62,active,-
O=c1c(-c2ccccc2)nc2cnc(Nc3ccccc3)nc2n1C[C@H]1CCCO1,5.012,inconclusive,"inhibitor, full curve, poor fit"
CC(C)n1cc(/C=C(\C#N)S(=O)(=O)c2ccccc2)c2ccccc21,31.62,inconclusive,"inhibitor, single point"
CCCC(=O)Nc1nn(C)c2nc3cc(C)ccc3cc12,31.62,inconclusive,"inhibitor, single point"
Cc1ccc(C2C=C(c3ccc4c(c3)OCO4)Nc3ncnn32)cc1 (stereo not shown),39.81,inconclusive,"inhibitor, single point"
Fc1ccc(Br)cc1C1C=C(c2ccc(Br)s2)Nc2ncnn21 (stereo not shown),31.62,inconclusive,"inhibitor, partial curve"
CSc1ccc2c(c1)N(CC[C@H]1CCCCN1C)c1ccccc1S2,31.62,inconclusive,"inhibitor, single point"
CCCCn1c(N)c(C(=O)NCCN2CCOCC2)c2nc3ccccc3nc21,25.12,active,-
Cc1ccc(C2NC(=O)c3c(sc4c3CCN(C)C4)N2)s1 (stereo not shown),12.59,active,-
COc1ccc(-n2c(=O)c(C)nc3cnc(N(C)C)nc32)cc1,2.512,inconclusive,"inhibitor, partial curve"

Repeated from the top, 5 entries:

{"smiles": "Cn1c(=O)c2c(-c3ccccc3)n3c4ccccc4ncc3c2n(C)c1=O", "potency (µM)": "3.981", "call": "active"}
{"smiles": "N#CCCn1c(=O)c(-c2ccc(Cl)cc2)nc2cnc(N3CCNCC3)nc21", "potency (µM)": "3.981", "call": "active"}
{"smiles": "N#CCCn1c(=O)c(-c2ccc(F)cc2)nc2cnc(N3CCOCC3)nc21", "potency (µM)": "31.62", "call": "active"}
{"smiles": "COc1ccc(-c2nc3cnc(N4CCOCC4)nc3n(CCC#N)c2=O)cc1", "potency (µM)": "3.162", "call": "active"}
{"smiles": "COc1ccc(-c2nc3cnc(N4CCN(C)CC4)nc3n(CCC#N)c2=O)cc1", "potency (µM)": "19.95", "call": "active"}